Results deposited as PubChem BioAssay AID602196 (INSERM, 2012).

Test: 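Genes whose knock-down alters cisplatin killing of lung cancer cells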
Cells: human A549 lung cancer cells
Knock-down reagent: siRNA pair against human genes
Time to read-out: 48 h transfection before cisplatin; time from cisplatin to read-out not stated
Treatment: cisplatin at a dose killing half of control-siRNA cells; exact dose and duration not given
Measured: 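Cisplatin cell death as a shift from the 50% death seen with control siRNA; siRNAs toxic or growth-blocking alone scored 0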
Scale: two-siRNA summed score (-2 to +2): higher = both siRNAs protect from cisplatin killing; -2 means both sensitise
Rule for the call: 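Each siRNA scores 0 if harmful alone by LDH or WST-1, otherwise +1 if it reduces and -1 if it increases cisplatin killing; a gene is active when both siRNAs agree (sum +2 or -2)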
Meaning of the calls: active = both siRNAs shift cisplatin killing the same way; inactive = no consistent shift, or siRNA harmful alone
The deposit covers about 23,000 reagents; below is a random part of them. In the full data, 455 (2%) got an active call. 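Active includes both protection and sensitisation; some change values fall well beyond the stated -50 to +50 range.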 A number with no mark means an inactive call. Not all columns of the deposit are shown. Not given: the amount of reagent.

gene knocked down	two-siRNA summed score (-2 to +2)
LOC391360	0
LOC387867	0
TMT1B	-1
TMEM86A	0
OR52B2	1
LOC440242	0
TANK	0
CENPO	0
RBM43	0
TFRC	0
TMEM61	0
FNDC11	0
LOC442093	0
NFKBIL1	1
LOC440309	1
BZW2	1
OR6C74	0
LOC441075	1
RNF138	1
LOC388847	1
PPP1R15A	1
WDR49	0
TSC22D4	0
